PubChem BioAssay AID1259271 | Sanger Institute, 2017

- Purpose: 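Follow-up check of kinase genes for lethal pairing with a drug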 (follow-up of hits)
- Cell system: RKO colorectal cancer cells
- Reagent: single siRNA against human genes
- Conditions: anchor drug added to each siRNA well, cetuximab 5 µg/ml, trametinib 10 nM or BYL719 1 µM, compared with DMSO vehicle; exposure length not given
- Read-out: 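Synergy score for each anchor drug (trametinib 10 nM, cetuximab 5 µg/ml, BYL719 1 µM, against DMSO) and survival versus control pool 2 (non-targeting), each a replicate mean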
- Scale: synergy score with BYL719 and synergy score with cetuximab and synergy score with trametinib: higher = stronger synthetic lethality with the drug
- Call rule: 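Any anchor drug giving synergy above 0.10 makes the siRNA a hit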
- Meaning of the calls: active = synergy with at least one drug; inactive = no synergy with any drug
Here is one part, drawn at random, of 160 deposited reagents. 124 of them (78%) were called active. 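Each row is one of four siRNAs per gene; gene-level confirmation, requiring two siRNAs in several cell lines, is not included.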 Reagents against one gene are numbered here. Further read-outs or replicates are left out here. Reagent sequences are not shown. Not given: the amount of reagent, the time to read-out.

MAPKAPK2 #1 → synergy score with BYL719: 0.0543; synergy score with cetuximab: 0.133; synergy score with trametinib: 0.153; call: active
MAPKAPK2 #2 → synergy score with BYL719: 0.0926; synergy score with cetuximab: 0.245; synergy score with trametinib: 0.0515; call: active
MAPKAPK2 #3 → synergy score with BYL719: 0.0582; synergy score with cetuximab: 0.105; synergy score with trametinib: 0.0461; call: active
MAPKAPK2 #4 → synergy score with BYL719: 0.0995; synergy score with cetuximab: 0.103; synergy score with trametinib: 0.0296; call: active
SYK #1 → synergy score with BYL719: 0.272; synergy score with cetuximab: 0.277; synergy score with trametinib: 0.317; call: active
SYK #2 → synergy score with BYL719: 0.0573; synergy score with cetuximab: 0.112; synergy score with trametinib: 0.126; call: active
SYK #3 → synergy score with BYL719: 0.245; synergy score with cetuximab: 0.325; synergy score with trametinib: 0.332; call: active
SYK #4 → synergy score with BYL719: -0.0805; synergy score with cetuximab: -0.0966; synergy score with trametinib: 0.199; call: active
GUCY2D #1 → synergy score with BYL719: -0.0284; synergy score with cetuximab: 0.122; synergy score with trametinib: 0.151; call: active
GUCY2D #2 → synergy score with BYL719: 0.0831; synergy score with cetuximab: 0.0926; synergy score with trametinib: 0.15; call: active
GUCY2D #3 → synergy score with BYL719: -0.215; synergy score with cetuximab: -0.00298; synergy score with trametinib: 0.161; call: active
GUCY2D #4 → synergy score with BYL719: -0.321; synergy score with cetuximab: -0.00987; synergy score with trametinib: -0.0709; call: inactive

Copied from the list.
Under “synergy score with cetuximab”, GUCY2D #3 reads -0.00298
MAPKAPK2 #4, call → active

The results go on.
PFKFB3 #1 → synergy score with BYL719: 0.111; synergy score with cetuximab: 0.176; synergy score with trametinib: 0.132; call: active
PFKFB3 #2 → synergy score with BYL719: 0.207; synergy score with cetuximab: 0.3; synergy score with trametinib: 0.306; call: active
PFKFB3 #3 → synergy score with BYL719: 0.107; synergy score with cetuximab: 0.331; synergy score with trametinib: 0.244; call: active
PFKFB3 #4 → synergy score with BYL719: 0.121; synergy score with cetuximab: 0.197; synergy score with trametinib: 0.271; call: active
MAP3K8 #1 → synergy score with BYL719: -0.207; synergy score with cetuximab: -0.0195; synergy score with trametinib: 0.0896; call: inactive
MAP3K8 #2 → synergy score with BYL719: 0.0856; synergy score with cetuximab: 0.113; synergy score with trametinib: 0.158; call: active
MAP3K8 #3 → synergy score with BYL719: -0.106; synergy score with cetuximab: 0.125; synergy score with trametinib: 0.158; call: active
MAP3K8 #4 → synergy score with BYL719: 0.0189; synergy score with cetuximab: 0.283; synergy score with trametinib: 0.318; call: active
PINK1 #1 → synergy score with BYL719: -0.188; synergy score with cetuximab: -0.0182; synergy score with trametinib: 0.11; call: active
PINK1 #2 → synergy score with BYL719: -0.0418; synergy score with cetuximab: 0.0374; synergy score with trametinib: 0.132; call: active
PINK1 #3 → synergy score with BYL719: -0.0713; synergy score with cetuximab: 0.00997; synergy score with trametinib: 0.0213; call: inactive
PINK1 #4 → synergy score with BYL719: -0.0875; synergy score with cetuximab: 0.176; synergy score with trametinib: 0.259; call: active
